Data: the supplement of paper PMC3334620
The full ranking holds about 33,000 sequences; the median of “E-score (-0.5 to 0.5)” is about -0.015, and the highest 2% start at about 0.3. The list shows a part of the results.

Molecular target: T1, Abf1 (UniProt P14164)
T1 sequence: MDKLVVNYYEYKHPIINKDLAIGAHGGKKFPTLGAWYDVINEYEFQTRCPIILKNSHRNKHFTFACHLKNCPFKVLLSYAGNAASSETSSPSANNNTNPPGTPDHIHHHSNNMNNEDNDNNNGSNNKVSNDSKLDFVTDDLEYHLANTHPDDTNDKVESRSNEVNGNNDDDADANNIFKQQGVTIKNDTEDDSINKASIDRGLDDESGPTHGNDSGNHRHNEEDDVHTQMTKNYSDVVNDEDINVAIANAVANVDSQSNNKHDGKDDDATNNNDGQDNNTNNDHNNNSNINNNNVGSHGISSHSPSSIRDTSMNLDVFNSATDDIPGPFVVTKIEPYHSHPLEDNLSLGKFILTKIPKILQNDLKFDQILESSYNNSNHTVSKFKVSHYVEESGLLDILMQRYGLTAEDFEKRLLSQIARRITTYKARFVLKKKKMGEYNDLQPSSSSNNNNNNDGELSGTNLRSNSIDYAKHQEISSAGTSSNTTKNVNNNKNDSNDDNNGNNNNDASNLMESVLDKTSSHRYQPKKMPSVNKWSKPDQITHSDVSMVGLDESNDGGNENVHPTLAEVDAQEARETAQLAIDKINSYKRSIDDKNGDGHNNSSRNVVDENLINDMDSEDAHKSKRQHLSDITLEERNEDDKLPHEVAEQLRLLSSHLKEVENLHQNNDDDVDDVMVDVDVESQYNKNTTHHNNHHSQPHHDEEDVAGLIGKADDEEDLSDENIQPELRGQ
Assay: PBM E-score (8-mer binding enrichment) (E-score (-0.5 to 0.5)); higher = stronger / more preferred TF binding
Settings: protein concentration: 200 nM; construct: GST-full length
In short: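 Masliner-normalised scans of fluorescent anti-GST signal were the basis for scoring. That signal came from GST-tagged yeast transcription factors applied at about 100-200 nM to double-stranded universal all-10-mer Agilent arrays on fresh or once-stripped slides. Each ungapped eight-base word, pooled with its reverse complement, received an E-score from the Universal PBM Analysis Suite.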

Row | Sequence | PBM E-score
1 | AAGCCTAG | -0.127
2 | ACAGATCG | 0.0874
3 | AGAATGAG | -0.157
4 | AGGCGAGA | -0.143
5 | ACCAGGAC | -0.203
6 | ACAAGAAA | 0.0193
7 | CCTTTCTA | -0.0753
8 | GACACAAA | 0.0703
9 | CGTAGGAC | 0.0785
10 | CGCGATAC | 0.0688
11 | AATCCATA | 0.0202
12 | CTCGTGCA | 0.124
13 | CGGAATCC | -0.13
14 | CGACTAGA | -0.0323
15 | CCAGGCTA | -0.22
16 | ACTCACCG | -0.0469
17 | GCTTACTA | -0.115
18 | ACAACGGG | 0.198
19 | CCACGTCG | -0.00795
20 | AGAATCAC | 0.0856
21 | CTTGAGCA | -0.112
22 | ACGGCAAT | 0.277
23 | CATTTGAC | -0.0151
24 | CCGACGGA | 0.0216
25 | GTAGGACA | 0.095

A few values from the results shown:
Under PBM E-score, CGTAGGAC shows 0.0785
Under PBM E-score, AGAATGAG shows -0.157

Continued.

Row | Sequence | PBM E-score
26 | TCACGTGA | 0.135
27 | GTCCCAAA | -0.0319
28 | CTAACTAC | 0.125
29 | CAGGCTCG | -0.0152
30 | GGAACAAA | 0.0294
31 | GAAAATTA | 0.0837
32 | GCGACTCA | 0.00435
33 | ACACCGAT | -0.134
34 | AGTTGACA | 0.221
35 | ACCGCATA | 0.0566
36 | CCGGCGTC | -0.0803
37 | CTCGCGTC | -0.0662
38 | CAATATAC | 0.107
39 | ACTATTCT | 0.089
40 | CGTGCTTA | 0.0846
41 | GCCATCCC | -0.255
42 | ACAGACAC | -0.0281
43 | CCTACATC | 0.0243
44 | GCTCATCA | 0.189
45 | AGAATTGC | -0.127
46 | AGTGCTAC | 0.0565
47 | CAAGCTGC | -0.227
48 | CCAAGGAC | -0.0293
49 | CAATAACA | -0.0367
50 | AGAACGCA | -0.0532

Rewritten comma-delimited: part of the list above.
Row,Sequence,PBM E-score
27,GTCCCAAA,-0.0319
34,AGTTGACA,0.221
49,CAATAACA,-0.0367

The listing continues.

Row | Sequence | PBM E-score
51 | TCGATCAA | -0.0096
52 | TGAGCAAA | 0.109
53 | TCTGTCAA | 0.0208
54 | CTGTCTGA | -0.106
55 | ATGTCCGC | -0.0181
56 | GAATTATC | 0.137
57 | CACAAAAC | -0.0381
58 | CCCCATCC | -0.162
59 | ATAAGGTG | 0.146
60 | GACATCGC | 0.272
61 | ATGGTCCA | -0.148
62 | TCGGACAA | 0.0647
63 | TTAGATAA | 0.139
64 | CGTGCATA | 0.251
65 | AGGTACAT | 0.144
66 | CCCTAGGA | -0.261
67 | CGGTTTCC | -0.0609
68 | CAACAGTC | -0.257
69 | AATCACGA | 0.309
70 | CTCGTATC | 0.26
71 | ACGAACCC | 0.0128
72 | CCGAAGAA | -0.122
73 | TATACTCA | 0.0461
74 | AGTCAGTA | -0.134
75 | GCTCCTCA | -0.167

Reprinted at random: 3 records from the list
Row | Sequence | PBM E-score
60 | GACATCGC | 0.272
54 | CTGTCTGA | -0.106
66 | CCCTAGGA | -0.261

The results go on.

Row | Sequence | PBM E-score
76 | ATAATTTC | 0.176
77 | ATAGGAAA | 0.126
78 | AGTCCTTC | -0.141
79 | GTGAGACA | 0.12
80 | ATCCTATC | 0.0831
81 | GCCAAACC | -0.176
82 | CGAGCGGC | -4e-05
83 | CAAAGCAA | 0.0821
84 | CCCATCCA | -0.0429
85 | CGATGCCG | -0.0951
86 | ACTCAACC | 0.0268
87 | GCCGGCCA | 0.0934
88 | ACCCCAAT | -0.176
89 | GAGCTAAC | -0.0892
90 | AGTCAGTC | -0.197
91 | AATTCCGG | -0.0708
92 | CGACCATC | 0.0447
93 | CATCCACA | 0.161
94 | AGTAACTC | 0.032
95 | GTCCCACA | -0.0496
96 | AACTTGAG | -0.247
97 | ATGTGCTA | 0.00032
98 | ATCGAAGG | 0.00682
99 | GTGTGAAA | 0.139
100 | ACGCTAAG | -0.193

Row | Sequence | PBM E-score
101 | GGACAGGA | -0.117
102 | GTAGTACA | 0.127
103 | ATCACGAT | 0.26
104 | CCCACCGA | -0.261
105 | GGCAGATA | 0.0862
106 | CGATTTCC | 0.0575
107 | CAGGTCAC | 0.26
108 | ACGCTTTA | -0.0323
109 | TAATCTGA | 0.107
110 | GCCGTCGC | 0.153
111 | CTATCTGA | 0.0155
112 | GGTTAAGA | 0.0346
113 | ACGCAGAG | -0.18
114 | AGCAAAGG | -0.096
115 | GGCGATTA | 0.129
116 | AATGCTAA | 0.00906
117 | AGTGTGGG | -0.169
118 | CAGGCGAC | 0.108
119 | ATTTCGAA | 0.113
120 | CTTGTCCC | -0.0642
121 | CTTTTATC | 0.129
122 | GAAACTCC | -0.109
123 | AGTAAGAC | -0.0233
124 | TCAGATCA | 0.153
125 | GTACGAGA | 0.277

Row | Sequence | PBM E-score
126 | ACATGACC | 0.137
127 | GGTGAAAC | 0.0128
128 | AAGCTATA | -0.0525
129 | CGAAATAC | 0.221
130 | GTTGCGTA | 0.212
131 | CAGCCATG | -0.0374
132 | CGTAACGC | 0.00536
133 | AGGTCAAG | -0.242
134 | GCAGCTCC | -0.312
135 | CCCGCTTA | -0.129
136 | CAAGGGTC | -0.0615
137 | AGCAAATA | 0.0692
138 | GGCTCTAA | -0.215
139 | TACTAGAA | -0.014
140 | GGTTAGAA | 0.0152
141 | CGAGGTGC | 0.0393
142 | GCTAGCTA | -0.107
143 | ACGTAAGC | -0.0114
144 | AACGGAGT | 0.0865
145 | ATCTCGTA | 0.188
146 | ATGGAGAC | 0.205
147 | CATGCACC | -0.0237
148 | CTCGAGTC | -0.0161
149 | GAGCCCAA | -0.134
150 | ATTATATC | 0.171

Row | Sequence | PBM E-score
151 | CTGCGTGA | 0.135
152 | AAGATTGC | 0.0157
153 | GGGTTGCA | -0.0243
154 | GGTATGAA | -0.0573
155 | CCAGATAG | -0.216
156 | AAAGTTAT | 0.123
157 | CGGTATTC | 0.166
158 | TAGTACGA | 0.287
159 | CCCCCCTC | -0.399
160 | TATAGTAA | 0.15
161 | ACCAATTA | 0.116
162 | GACAACAC | 0.0709
163 | AAGCGCAT | -0.0811
164 | CGAGTCGC | -0.00595
165 | ACGGAGGC | -0.179
166 | GGAGTTGA | 0.0171
167 | GATCACGC | 0.366
168 | TCCCGCAA | -0.285
169 | CGTGACGA | 0.351
170 | ACACTACA | 0.169
171 | ACTCTCCG | -0.0264
172 | CTCCTAGC | -0.302
